The record followed here is PubChem BioAssay AID1347426 (Functional Genomics Laboratory (NCATS/FGL), 2020).

Hit rate of the full screen: of about 31,000 sequences, about 1,400 (4.5%) were called active.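 How the source made its calls: active means median seed-adjusted z-score above 1 or below -1; inactive means the rest.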 The list shows a part of the results.

The nature of this assay: Novel Modifiers of Survival Motor Neuron (SMN) Protein: Gene Identification via Genome-wide siRNA Screen.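 Further: luminescence tracks full-length SMN protein made from the SMN2 reporter.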 To be noted: HEK293T SMN2-luciferase reporter, siRNA knockdown, 72 h; actives lie on both sides. The procedure, abridged: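 Genome-wide siRNA screen (10418 genes, 3 siRNAs each, 1 pmol per well) by reverse transfection in HEK293T cells stably carrying an SMN2-luciferase reporter; luminescence after 72 hours, normalized to negative-control siRNA, log10-transformed, MAD-scored.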
In the case of GGACUACCAUGUAUCCCUATT against SOS2, the median seed-adjusted z-score was inactive: 0.3.

As for GGAUGAGAGUUCAAGACGATT against INPP4A, the median seed-adjusted z-score was inactive: 0.379.

Take GGAUUUCGUUAAAACACGATT against PARD3: the median seed-adjusted z-score is inactive: -0.116.

In the case of GCUUCACCCUGGCUAGAAATT against ECHDC2, the median seed-adjusted z-score is inactive: -0.0827.

As to GUUGAGGUCUGGUAACAGATT against TMED1, the median seed-adjusted z-score was inactive: 0.

In the case of GCCGCUUCUUCAAUGCCUUTT against AGRP, the median seed-adjusted z-score is inactive: 0.206.

With CCUGCGUCAUCGUUUGCUATT against FZD9, the median seed-adjusted z-score is inactive: -0.0532.

For GUAUCAGCAUUGAUAGAUATT against GPR21, the median seed-adjusted z-score was inactive: 0.246.

For the sequence GGCUUUCUUUGGGAGCAGUTT against GCS1, the median seed-adjusted z-score was inactive: 0.819.

Regarding GCGAUUUUCUUACAGUCGATT against USP15, the median seed-adjusted z-score is inactive: -0.405.

Consider GGAUUGGUCUGAGGAACAATT against KLRG1, for which the median seed-adjusted z-score is inactive: -0.0324.

For the sequence GGGUGGAUCAUGUUAUGGATT against NEIL3, the median seed-adjusted z-score was inactive: 0.0736.

For GCACUAUCCUCUUAGAGAATT against SFRS2, the median seed-adjusted z-score was inactive: 0.263.

On to GGAAUUAAGCCUUCCCAGATT against ZNF81, for which the median seed-adjusted z-score is inactive: 0.178.

With GCUACAGGCUUUCUACUUATT against UBE2G1, the median seed-adjusted z-score was inactive: 0.174.

CAAGGAUCAGUUACGGAAATT against APP: the median seed-adjusted z-score was inactive: 0.0204.

With GUUCUGUAAUCGAAGACAATT against POU3F4, the median seed-adjusted z-score was inactive: -0.314.

Consider CCAUGUCCAGUGUCACGAATT against GALNTL5, for which the median seed-adjusted z-score was inactive: -0.363.

With GGCUAUAGGGUGUAUAUUUTT against CDK8, the median seed-adjusted z-score was active: -1.47.

In the case of GCACAGUUAUAGUGAUCAATT against EMR1, the median seed-adjusted z-score was inactive: 0.255.

GCAGCUCUCCUAUUAGUAATT against DMRT1: the median seed-adjusted z-score is inactive: 0.

As for GGAGAGAGCAGUUUCAACATT against HSPB8, the median seed-adjusted z-score was inactive: 0.207.

For the sequence CGAGUAGAUUAUAAGUGUATT against CD46, the median seed-adjusted z-score is inactive: -0.0278.

On to GUUCCAAACCUGUUCAUUUTT against GRPR, for which the median seed-adjusted z-score is inactive: 0.121.

Take GGACCAAAAUACAUGAGGATT against ELOVL5: the median seed-adjusted z-score is inactive: -0.734.

Regarding ACAACUUGGAGUAUCCUUUTT against ZNF480, the median seed-adjusted z-score was inactive: -0.164.

For GGCCCUACGAUUAACUGAATT against CCT4, the median seed-adjusted z-score is inactive: -0.413.

As to CAAAGAACUGCAUAGCGUATT against KLRD1, the median seed-adjusted z-score is inactive: 0.876.

As to GUCUUUCACAGAAACGAAATT against RAD9B, the median seed-adjusted z-score is inactive: 0.0879.

Regarding CCCACCAAAUUGCACAAUATT against KLF13, the median seed-adjusted z-score is inactive: -0.501.

Regarding GCAGUGAUCAUAAUUCUCATT against SLC7A1, the median seed-adjusted z-score is inactive: 0.445.

Take CACCCUUUUUGUCAGAUUATT against SKAP1: the median seed-adjusted z-score is inactive: -0.00637.

In the case of GGCAUGUUCUCUGACCUGATT against LINGO2, the median seed-adjusted z-score is inactive: 0.123.

For GGUCGGUACUGGAAGUUCATT against SLC5A3, the median seed-adjusted z-score is inactive: -0.0305.

With UGAUUUACCUGAGCUGUAATT against GSTT2, the median seed-adjusted z-score was inactive: 0.0298.

Consider AGAUCUCGUGGUUCUGGAATT against RPUSD1, for which the median seed-adjusted z-score is inactive: 0.327.

As for GGACUUUGUGAAGUUGUUATT against CRYZL1, the median seed-adjusted z-score was inactive: 0.0481.

Take CAACUGCUAGCUGAACGAATT against ITIH2: the median seed-adjusted z-score was inactive: 0.262.

In the case of AACUACCUUCAACUCCAUATT against FKSG30, the median seed-adjusted z-score is inactive: -0.292.

With AGGUCAAGCUGCGCACAGATT against AGAP2, the median seed-adjusted z-score is inactive: 0.0934.

Turning to CCUCCAUGCAUACACCAGATT against RDH8, the median seed-adjusted z-score is inactive: -0.657.

On to CCUAUUCACUUUACACUGUTT against AKR7A2, for which the median seed-adjusted z-score is inactive: 0.192.

Regarding GCAUCGUGAGUGGUACGUUTT against APOL6, the median seed-adjusted z-score was inactive: -0.167.

Regarding AACUGAACAUAGCAGAAUUTT against ZNF85, the median seed-adjusted z-score is active: -1.01.

Consider CAUCGCCUAUCCAACCUUATT against SLC5A1, for which the median seed-adjusted z-score was inactive: -0.812.

Consider GCCGGAAUGCCUUACCAGATT against PKIB, for which the median seed-adjusted z-score is inactive: 0.147.

CAGAUUGUCUAGAUCCAGATT against CDC2L5: the median seed-adjusted z-score was inactive: 0.314.

For GGUAGAAAAUCGAUACCAATT against ATRN, the median seed-adjusted z-score is inactive: -0.28.

As for AGUUGUACCUGGAGAAUGATT against PARP10, the median seed-adjusted z-score was inactive: -0.454.

In the case of GCCUUAUACCAACCGGUUATT against PKNOX2, the median seed-adjusted z-score is inactive: 0.0976.

As to GUGCGAUUCUGGAUGACAATT against EVI1, the median seed-adjusted z-score is inactive: 0.

Consider CCAUAAUGCGGGAACGCAATT against CDH19, for which the median seed-adjusted z-score was inactive: -0.409.

Regarding GCAGUUCGUCUUCAGCUUUTT against DUSP4, the median seed-adjusted z-score was inactive: -0.176.

Consider GCAUCGUGAGUGUCAAUUATT against SIM2, for which the median seed-adjusted z-score is inactive: -0.19.

Turning to GCCUAUUAUGGACAACAAUTT against IKZF2, the median seed-adjusted z-score was inactive: 0.514.

Take AAGUUGAAAAGGAAGCAAATT against SIP1: the median seed-adjusted z-score was inactive: -0.443.

On to GGCCCUACGUAAUAGGCUATT against BUB1, for which the median seed-adjusted z-score was inactive: 0.566.

For GGAAAUAGCCUUCAACAGATT against GK5, the median seed-adjusted z-score is inactive: -0.118.

Take GCAAUGGUCUCAUCAAGGUTT against RPS16: the median seed-adjusted z-score was inactive: 0.

Turning to CUAUUAGGUUGACCAAUAATT against OSGEPL1, the median seed-adjusted z-score was inactive: -0.708.

Take ACAAUGUCGCAAUCACAUUTT against MCART1: the median seed-adjusted z-score was inactive: -0.605.

As to GGAAAGACAUGUAAGAGCATT against BMP8B, the median seed-adjusted z-score is inactive: 0.

In the case of CUAAGAUUCUGGUCAAUAUTT against OXSM, the median seed-adjusted z-score was inactive: 0.22.

For the sequence GCAAAUGGUUGGAAAUUAATT against RBM9, the median seed-adjusted z-score was inactive: 0.895.

For CCACAACACCCAACAUGAATT against GATAD2B, the median seed-adjusted z-score was inactive: 0.218.

For the sequence GCUAUUCAGUCAUAAUCAATT against CXCR6, the median seed-adjusted z-score is inactive: 0.71.

Take AGAGUGAAUUUAAGGACAUTT against GJB2: the median seed-adjusted z-score is inactive: -0.408.

For GCAAAGCCGAUGUCCAGAATT against AARS, the median seed-adjusted z-score is inactive: 0.

On to UGGAGUAAAUGAUAAGAUATT against TRIM45, for which the median seed-adjusted z-score is inactive: -0.0974.

For GGUCUAGUACAGGAGAAUATT against GABRA3, the median seed-adjusted z-score is inactive: -0.281.

As to CGGGAAGAAUCAAAGUCGATT against KRT23, the median seed-adjusted z-score was inactive: -0.0696.

Regarding CGAAGACGAUUUCAACAAATT against MAP4K4, the median seed-adjusted z-score is inactive: 0.474.

For the sequence CAUCAGGAAUGGAAUUACATT against SKIL, the median seed-adjusted z-score was inactive: -0.868.

On to GCAUGUUGCAGGACCAUAATT against TXNDC11, for which the median seed-adjusted z-score was inactive: 0.642.

Regarding GGCACAUGGUUAACCUGGATT against GPX4, the median seed-adjusted z-score was active: -1.18.

As to GCUCGAGUCUUACUAAACATT against ZNF682, the median seed-adjusted z-score is inactive: -0.155.

Take CACUCUUAACGGGACCUUUTT against BDKRB2: the median seed-adjusted z-score was inactive: -0.311.

GCAGGACAGUUCAACCUAATT against RASAL2: the median seed-adjusted z-score is inactive: 0.

For the sequence GGCCUAUCAUUUAACUCAATT against GPR126, the median seed-adjusted z-score is inactive: -0.243.

GGGUGGUAAAGCUAAAUGATT against AHCYL1: the median seed-adjusted z-score is inactive: 0.

Take CAUCUGUGACGGGAACUUUTT against MMP14: the median seed-adjusted z-score was inactive: -0.0145.

On to CAAUGAUGGAAGCACCGAATT against BDP1, for which the median seed-adjusted z-score is inactive: -0.0359.

For the sequence CCAGUUUCAUUAUACAUCATT against ZNF211, the median seed-adjusted z-score is inactive: -0.173.

As for GGAAAACAAGCUCAUCAAUTT against HOXA6, the median seed-adjusted z-score was inactive: -0.282.

In the case of CACUUACUGAAGACGAAUATT against AGTR2, the median seed-adjusted z-score is inactive: 0.204.

Take GCAUCUACGAGUAUGUGGATT against PRPF31: the median seed-adjusted z-score was inactive: -0.592.

In the case of GCAUCGACCUGAUUCACAATT against AP3B2, the median seed-adjusted z-score was active: -2.45.

With GGGUAGUACCUAAUAAUCATT against RCN2, the median seed-adjusted z-score is inactive: -0.112.

With GCAUGAUCUUUAGCCGAGATT against CHSY3, the median seed-adjusted z-score was inactive: -0.113.

In the case of CAAGUUCAGUCGUCCCAAATT against MYOZ3, the median seed-adjusted z-score is inactive: 0.16.

As for CAAUGAAUCAGAAACGAAUTT against TCF7L2, the median seed-adjusted z-score was inactive: 0.189.

As for CCUGCAUCCUCAUGGGUUATT against SLC5A2, the median seed-adjusted z-score is inactive: -0.0782.

GAAUGAGAUAUGGUAUAGATT against F12: the median seed-adjusted z-score was inactive: 0.345.

As to CCCAUAUGCUUGUGACGGATT against NPAS2, the median seed-adjusted z-score is inactive: 0.222.

Regarding GCUUCAUGACAUCCGCAAATT against CTSL3, the median seed-adjusted z-score is active: 1.07.

With CCUGUGAGCUAAUCUUUGATT against IVD, the median seed-adjusted z-score was inactive: -0.147.

Turning to GCACUUACACCUGCACAAATT against SRPX2, the median seed-adjusted z-score is inactive: 0.101.

For the sequence CAACAGCUGUGAUCACAGUTT against CDH1, the median seed-adjusted z-score is inactive: -0.24.

GGGAGAUUAUUUGUUUGAATT against SRPK2: the median seed-adjusted z-score was inactive: 0.654.

For the sequence GCUCUACGGCUCACACUAATT against KIF14, the median seed-adjusted z-score was inactive: 0.

Take ACUUCAACGUGACCACAGATT against PNPLA6: the median seed-adjusted z-score was inactive: 0.309.

With CAAACACUCUGACAGUUAUTT against ZNF592, the median seed-adjusted z-score is inactive: 0.0774.

On to GGCUUAUGAAGACCAAACATT against AK3, for which the median seed-adjusted z-score is inactive: -0.0313.

As for GAUAUUCUCUGUGACGUGATT against BACH2, the median seed-adjusted z-score was inactive: 0.

On to CGACGGAUCUUUUCGCUGUTT against FBN2, for which the median seed-adjusted z-score is inactive: 0.373.

AGUAUGGACUGAAAAUGAATT against PA2G4: the median seed-adjusted z-score was inactive: -0.803.

On to CGAGGAAGUUUAUCUGCGATT against TRPV1, for which the median seed-adjusted z-score is inactive: -0.12.

In the case of GGAUGAACGUGCUAGAACATT against NLRC4, the median seed-adjusted z-score was inactive: -0.00107.
